Reference: US7939537B2, “HIV integrase inhibitors” (Istituto Di Ricerche Di Biologia Molecolare P. Angeletti …, priority 2006, dated 2011)
Some results were stated once for a whole list of compounds, not compound by compound.

Target: T1, recombinant integrase (HIV integrase) (Human immunodeficiency virus type 1 group M subtype B, UniProt P04585)
T1 construct: Strand Transfer Catalyzed by Recombinant Integrase
Test: HIV integrase assay: strand transfer catalyzed by recombinant integrase
Type: biochemical
Conditions: per WO 02/30930, read-out: IC50, inhibition of strand transfer activity of integrase

SMILES	IC50 [µM]
O=C(NCc1ccc(F)cc1)c1nc2ccccn2c(=O)c1O [Example 1, N-(4-Fluorobenzyl)-3-hydroxy-4-oxo-4H-pyrido[1,2-a]pyrimidine-2-carboxamide]	< 5
CN(C(=O)CS(C)(=O)=O)c1cccn2c(=O)c(O)c(C(=O)NCc3ccc(F)cc3)nc12 [Example 2, N-(4-fluorobenzyl)-3-hydroxy-9-{methyl[(methylsulfonyl)acetyl]amino}-4-oxo-4H-pyrido[1,2-a]pyrimidine-2-carboxamide]	< 5
CCN(CC)C(=O)C(=O)N(CC)c1cccn2c(=O)c(O)c(C(=O)NCc3ccc(F)cc3)nc12 [Example 3, N-(4-fluorobenzyl)-3-hydroxy-9-[(N,N,N′-triethyl)-ethanediamide]-4-oxo-4H-pyrido[1,2-a]pyrimidine-2-carboxamide]	< 5
O=C(NCc1ccc(F)cc1)c1nc2c(OCc3ccccc3)cccn2c(=O)c1O [Example 4, N-(4-fluorobenzyl)-3-hydroxy-9-(benzyloxy)-4-oxo-4H-pyrido[1,2-a]pyrimidine-2-carboxamide]	< 5
O=C(NCc1ccc(F)cc1)c1nc2ccc(-c3ccccc3N3CCOCC3)cn2c(=O)c1O [Example 5]	< 5
CC(=O)N(C)c1cccn2c(=O)c(O)c(C(=O)NCc3ccc(F)cc3)nc12 [Example 6, 9-[acetyl(methyl)amino]-N-(4-fluorobenzyl)-3-hydroxy-4-oxo-4H-pyrido[1,2-a]pyrimidine-2-carboxamide]	< 5
CN(C(=O)c1ccccc1)c1cccn2c(=O)c(O)c(C(=O)NCc3ccc(F)cc3)nc12 [Example 7, 9-[benzoyl(methyl)amino]-N-(4-fluorobenzyl)-3-hydroxy-4-oxo-4H-pyrido[1,2-a]pyrimidine-2-carboxamide]	< 5
CNc1cccn2c(=O)c(O)c(C(=O)NCc3ccc(F)cc3)nc12 [Example 8, 9-[methylamino]-N-(4-fluorobenzyl)-3-hydroxy-4-oxo-4H-pyrido[1,2-a]pyrimidine-2-carboxamide]	< 5
CN(C)c1cccn2c(=O)c(O)c(C(=O)NCc3ccc(F)cc3)nc12 [Example 9, 9-[dimethylamino]-N-(4-fluorobenzyl)-3-hydroxy-4-oxo-4H-pyrido[1,2-a]pyrimidine-2-carboxamide]	< 5
CCNc1cccn2c(=O)c(O)c(C(=O)NCc3ccc(F)cc3)nc12 [Example 10, 9-[ethylamino]-N-(4-fluorobenzyl)-3-hydroxy-4-oxo-4H-pyrido[1,2-a]pyrimidine-2-carboxamide]	< 5
CN(C)C(=O)C(=O)N(C)c1cccn2c(=O)c(O)c(C(=O)NCc3ccc(F)cc3)nc12 [Example 11, N-(2-{[(4-fluorobenzyl)amino]carbonyl}-3-hydroxy-4-oxo-4H-pyrido[1,2-a]pyrimidin-9-yl)-N,N′,N′-trimethylethanediamide]	< 5
CCN(C(=O)C(=O)N(C)C)c1cccn2c(=O)c(O)c(C(=O)NCc3ccc(F)cc3)nc12 [Example 12, N-(2-{[(4-fluorobenzyl)amino]carbonyl}-3-hydroxy-4-oxo-4H-pyrido[1,2-a]pyrimidin-9-yl)-N-ethyl-N′,N′-dimethylethanediamide]	< 5
O=C(Nc1cccn2c(=O)c(O)c(C(=O)NCc3ccc(F)cc3)nc12)OCc1ccccc1 [Example 13, benzyl (2-{[(4-fluorobenzyl)amino]carbonyl}-3-hydroxy-4-oxo-4H-pyrido[1,2-a]pyrimidin-9-yl)carbamate]	< 5
O=C(Nc1cccn2c(=O)c(O)c(C(=O)NCc3ccc(F)cc3)nc12)c1ccccc1 [Example 14, 9-[benzoylamino]-N-(4-fluorobenzyl)-3-hydroxy-4-oxo-4H-pyrido[1,2-a]pyrimidine-2-carboxamide]	< 5
CCN(C(=O)c1ccncc1)c1cccn2c(=O)c(O)c(C(=O)NCc3ccc(F)cc3)nc12 [Example 15, 9-[ethyl(isonicotinoyl)amino]-N-(4-fluorobenzyl)-3-hydroxy-4-oxo-4H-pyrido[1,2-a]pyrimidine-2-carboxamide]	< 5
CCN(C(=O)c1ccccn1)c1cccn2c(=O)c(O)c(C(=O)NCc3ccc(F)cc3)nc12 [Example 16, 9-[ethyl(pyridin-2-ylcarbonyl)amino]-N-(4-fluorobenzyl)-3-hydroxy-4-oxo-4H-pyrido[1,2-a]pyrimidine-2-carboxamide]	< 5
CCCN(C(=O)C(=O)N(C)C)c1cccn2c(=O)c(O)c(C(=O)NCc3ccc(F)cc3)nc12 [Example 17, N-(2-{[(4-fluorobenzyl)amino]carbonyl}-3-hydroxy-4-oxo-4H-pyrido[1,2-a]pyrimidin-9-yl)-N-propyl-N′,N′-dimethylethanediamide]	< 5
CC(C)CN(C(=O)C(=O)N(C)C)c1cccn2c(=O)c(O)c(C(=O)NCc3ccc(F)cc3)nc12 [Example 18, N-(2-{[(4-fluorobenzyl)amino]carbonyl}-3-hydroxy-4-oxo-4H-pyrido[1,2-a]pyrimidin-9-yl)-N-isobutyl-N′,N′-dimethylethanediamide]	< 5

SMILES	IC50 [µM]
CCN(C(=O)C(=O)N1CCOCC1)c1cccn2c(=O)c(O)c(C(=O)NCc3ccc(F)cc3)nc12 [Example 19, N-(4-fluorobenzyl)-3-hydroxy-9-{ethyl[morpholin-4-yl(oxo)acetyl]amino}-4-oxo-4H-pyrido[1,2-a]pyrimidine-2-carboxamide]	< 5
CCN(C(=O)CN(C)C)c1cccn2c(=O)c(O)c(C(=O)NCc3ccc(F)cc3)nc12 [Example 20, 9-[(N,N-dimethylglycyl)(ethyl)amino]-N-(4-fluorobenzyl)-3-hydroxy-4-oxo-4H-pyrido[1,2-a]pyrimidine-2-carboxamide]	< 5
CCN(CC)CC(=O)N(CC)c1cccn2c(=O)c(O)c(C(=O)NCc3ccc(F)cc3)nc12 [Example 21, 9-[(N,N-diethylglycyl)(ethyl)amino]-N-(4-fluorobenzyl)-3-hydroxy-4-oxo-4H-pyrido[1,2-a]pyrimidine-2-carboxamide]	< 5
CCN(C(=O)CN1CCOCC1)c1cccn2c(=O)c(O)c(C(=O)NCc3ccc(F)cc3)nc12 [Example 22, 9-[ethyl(morpholin-4-ylacetyl)amino]-N-(4-fluorobenzyl)-3-hydroxy-4-oxo-4H-pyrido[1,2-a]pyrimidine-2-carboxamide]	< 5
CCN(C(=O)CN1CCN(C)CC1)c1cccn2c(=O)c(O)c(C(=O)NCc3ccc(F)cc3)nc12 [Example 23, 9-{ethyl[(4-methylpiperazin-1-yl)acetyl]amino}-N-(4-fluorobenzyl)-3-hydroxy-4-oxo-4H-pyrido[1,2-a]pyrimidine-2-carboxamide]	< 5
CCN(C(=O)c1cscn1)c1cccn2c(=O)c(O)c(C(=O)NCc3ccc(F)cc3)nc12 [Example 24, 9-[ethyl(1,3-thiazol-4-ylcarbonyl)amino]-N-(4-fluorobenzyl)-3-hydroxy-4-oxo-4H-pyrido[1,2-a]pyrimidine-2-carboxamide]	< 5
CCN(C(=O)c1ccno1)c1cccn2c(=O)c(O)c(C(=O)NCc3ccc(F)cc3)nc12 [Example 25, 9-[ethyl(isoxazol-5-ylcarbonyl)amino]-N-(4-fluorobenzyl)-3-hydroxy-4-oxo-4H-pyrido[1,2-a]pyrimidine-2-carboxamide]	< 5
CCN(C(=O)c1nnc(C)o1)c1cccn2c(=O)c(O)c(C(=O)NCc3ccc(F)cc3)nc12 [Example 26, 9-{ethyl[(5-methyl-1,3,4-oxadiazol-2-yl)carbonyl]amino}-N-(4-fluorobenzyl)-3-hydroxy-4-oxo-4H-pyrido[1,2-a]pyrimidine-2-carboxamide]	< 5
CCN(C(=O)C(=O)N1CCCC1)c1cccn2c(=O)c(O)c(C(=O)NCc3ccc(F)cc3)nc12 [Example 27, 9-{ethyl[oxo(pyrrolidin-1-yl)acetyl]amino}-N-(4-fluorobenzyl)-3-hydroxy-4-oxo-4H-pyrido[1,2-a]pyrimidine-2-carboxamide]	< 5
CCN(C(=O)C(=O)N1CCN(C)CC1)c1cccn2c(=O)c(O)c(C(=O)NCc3ccc(F)cc3)nc12 [Example 28, 4-[[ethyl(2-{[(4-fluorobenzyl)amino]carbonyl}-3-hydroxy-4-oxo-4H-pyrido[1,2-a]pyrimidin-9-yl)amino](oxo)acetyl]-1-methylpiperazine]	< 5
Cc1cccn2c(=O)c(O)c(C(=O)NCc3ccc(F)cc3)nc12 [Example 29, N-(4-fluorobenzyl)-3-hydroxy-9-methyl-4-oxo-4H-pyrido[1,2-a]pyrimidine-2-carboxamide]	< 5
CN(C)Cc1cccn2c(=O)c(O)c(C(=O)NCc3ccc(F)cc3)nc12 [Example 30, 9-[(dimethylamino)methyl]-N-(4-fluorobenzyl)-3-hydroxy-4-oxo-4H-pyrido[1,2-a]pyrimidine-2-carboxamide]	< 5
CON(C)Cc1cccn2c(=O)c(O)c(C(=O)NCc3ccc(F)cc3)nc12 [Example 31, N-(4-fluorobenzyl)-3-hydroxy-9-{[methoxy(methyl)amino]methyl}-4-oxo-4H-pyrido[1,2-a]pyrimidine-2-carboxamide]	< 5
O=C(NCc1ccc(F)cc1)c1nc2c(CN3CCOCC3)cccn2c(=O)c1O [Example 32, N-(4-fluorobenzyl)-3-hydroxy-9-(morpholin-4-ylmethyl)-4-oxo-4H-pyrido[1,2-a]pyrimidine-2-carboxamide]	< 5
CC(=O)N1CCN(Cc2cccn3c(=O)c(O)c(C(=O)NCc4ccc(F)cc4)nc23)CC1 [Example 33, 9-[(4-acetylpiperazin-1-yl)methyl]-N-(4-fluorobenzyl)-3-hydroxy-4-oxo-4H-pyrido[1,2-a]pyrimidine-2-carboxamide]	< 5
O=C(NCc1cccn2c(=O)c(O)c(C(=O)NCc3ccc(F)cc3)nc12)c1ccccc1 [Example 34, 9-[(benzoylamino)methyl]-N-(4-fluorobenzyl)-3-hydroxy-4-oxo-4H-pyrido[1,2-a]pyrimidine-2-carboxamide]	< 5
O=C(NCc1ccc(F)cc1)c1nc2ccc(Br)cn2c(=O)c1O [Example 35, 7-bromo-N-(4-fluorobenzy1)-3-hydroxy-4-oxo-4H-pyrido[1,2-a]pyrimidine-2-carboxamide]	< 5
